# Measurements: patent US20240294914A1, “COMPOSITIONS AND METHODS FOR TREATING HEPATITIS B VIRUS INFECTION” (priority 2021, published 2024)
# Some results were stated once for a whole list of compounds, not compound by compound.
# System: Hepatitis B virus
# Assay: Antiviral efficacy in HBV-infected primary human hepatocytes (HBV-PHH): HBsAg, HBeAg, HBV DNA, 3.5 kb RNA, rebound
# Assay type: cell-based
# Conditions: HBV-PHH system, guide RNA + mRNA encoding base editor
# Description: Base editor systems comparing guide RNAs evaluated in Example 1 were subsequently tested for anti-viral and editing efficacy using the Hepatitis B virus-primary human hepatocyte (HBV-PHH) system. Cells were transfected with the guide RNAs and mRNAs encoding the base editor as described in Example 1. […] Guide RNAs ABE-133, MSPbeam94, and ABE-85 were associated with a 70-80% reduction of HBV DNA as compared to controls. The guide RNAs PolyA-NGC1 and PolyA-NGC2 were associated with high editing followed by 90% efficacy in reduction of HbeAg.
# The HBV-PHH system for studying the Hepatitis B virus is described, for example, by Winer, et al., “Long-term hepatitis B infection in a scalable hepatic co-culture system,” Nat. Commun. […]
# The design of the experiments is described schematically in FIG. 18. […] HBV DNA levels were measured over time, and additional HBV markers were measured at day 21.
# Primary hepatocytes (PHH) co-cultures infected with HBV were used to test antiviral efficacy of base editing systems. […] Extracellular parameters (e.g., HBsAg, HBeAg, and HBV DNA) were monitored over the course of the experiment (including the end of the experiment) and intracellular parameters (HBV DNA, viral RNA, and editing) were measured at the end of the experiment. […]
molecule,measurement,value
"ABE-133: guide RNA SEQ ID NO: 5516 (nucleic acid, chemistry not fully specified) guide: GAAGATGAGGCATAGCAGCAGTTTTAGAGCTAGAAATAGCAAGTTAAAATAAGGCTAGTCCGTTATCAACTTGAAAAAGTGGCACCGAGTCGGTGCTTTT",reduction of HBV DNA as compared to controls,70-80%
